PubChem BioAssay AID504791, Drosophila RNAi Screening Center, 2011

Screen: 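Factors in Argonaute-based small RNA production and activity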 (primary screen)
Cells: Drosophila S2-derived reporter cells
Reagent: long dsRNA against Drosophila genes, about 150-250 ng dsRNA per well (siRNA assay); about 80-120 ng (miRNA assay)
Duration: about 5 days (siRNA assay); about 4 days (miRNA assay)
Conditions: copper sulfate induction of reporters: 25 µM (siRNA assay); 200 mM stated (miRNA assay), 1-2 days before reading
Read-out: 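Per-well ratio of Renilla over firefly light, expressed relative to that plate's average ratio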
Reading the numbers: siRNA reporter hit score: higher = 3 marks a strong hit with raised ratio; -3 a strong hit with lowered ratio
Rule for the call: 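First-pass picks had plate-scaled ratios over 1.5 for the siRNA assay, over 1.6 for the miRNA assay, or under 0.6; two distinct dsRNAs had to score alike on retest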
In all, the deposit lists about 23,000 reagents; this is an unselected part of those with a known target gene and a result. Over the whole deposit, 199 (0.86%) were called active. 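Plate-scaled ratios behind the calls are not deposited; printed light signals are raw; many rows marked increased or decreased are still called inactive.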 A plus sign joins genes that one reagent is predicted to hit.

The opening 4 entries as a preview:
gene knocked down,DRSC id,siRNA reporter hit score,stable siRNA reporter change,miRNA reporter change,"stable assay Renilla, run 1 (luminescence)","stable assay firefly, run 1 (luminescence)",Call
VGlut (Vesicular glutamate transporter),DRSC00733,,,,3932,3.54e5,inactive
VGlut (Vesicular glutamate transporter),DRSC21821,,,,8884,4.60e5,inactive
POSH (Plenty of SH3s),DRSC07499,,,,6114,3.21e5,inactive
Ten-m (Tenascin major),DRSC11664,3,,,7602,4.31e5,inactive

Results, repeating the preview:
gene knocked down,DRSC id,siRNA reporter hit score,stable siRNA reporter change,miRNA reporter change,"stable assay Renilla, run 1 (luminescence)","stable assay firefly, run 1 (luminescence)",Call
VGlut (Vesicular glutamate transporter),DRSC00733,,,,3932,3.54e5,inactive
VGlut (Vesicular glutamate transporter),DRSC21821,,,,8884,4.60e5,inactive
POSH (Plenty of SH3s),DRSC07499,,,,6114,3.21e5,inactive
Ten-m (Tenascin major),DRSC11664,3,,,7602,4.31e5,inactive
Ten-m (Tenascin major),DRSC11882,3,,,7647,4.45e5,inactive
CG13126,DRSC02222,,,,7639,4.95e5,inactive
Cpr50Cb (Cuticular protein 50Cb),DRSC06975,,,,5716,2.70e5,inactive
qkr58E-2 (quaking related 58E-2),DRSC04710,,,,7306,3.24e5,inactive
Rrp46,DRSC15537,,,,9185,4.16e5,inactive
"alpha4GT2 (alpha1,4-galactosyltransferase 2)",DRSC15905,,,,6795,3.82e5,inactive
CG13376,DRSC17901,,,,5650,4.00e5,inactive
Obp50a (Odorant-binding protein 50a),DRSC22152,,,,8431,5.68e5,inactive
gny (garnysstan),DRSC02810,,,,20075,1.18e6,inactive
CG12321,DRSC14499,,,,8624,3.68e5,inactive
Ctu1 (Cytosolic thiouridylase subunit 1),DRSC07069,,,,7232,3.19e5,inactive
Tbcc (Tubulin-binding cofactor C),DRSC00223,,,,4690,3.40e5,inactive
CG42457 (retired record) + cpo,DRSC13273,,,,2787,2.90e5,inactive
CG42457 (retired record) + cpo,DRSC14503,,reporter ratio raised past the hit cutoff,,6215,1.80e5,inactive
CG42457 (retired record) + cpo,DRSC15327,,,,5404,1.99e5,inactive
CG42457 (retired record) + cpo,DRSC16926,,,,6026,2.42e5,inactive
CG42457 (retired record) + cpo,DRSC23006,,,,3863,3.62e5,inactive
Sec61beta (Sec61 beta subunit),DRSC07548,,,,4656,3.42e5,inactive
Sec61beta (Sec61 beta subunit),DRSC21512,,,,8165,4.15e5,inactive
CG13377,DRSC18622,,,,6135,3.42e5,inactive
baz (bazooka),DRSC20309,,,,5430,3.48e5,inactive
Lcp65Ag3 (Larval cuticle protein),DRSC10345,,,,3840,4.71e5,inactive
muc (midline uncoordinated),DRSC02832,,,,6902,4.65e5,inactive
muc (midline uncoordinated),DRSC21940,,,,8689,5.54e5,inactive
CG31740,DRSC01619,,,,5612,3.45e5,inactive
lwr (lesswright),DRSC00828,,reporter ratio lowered past the hit cutoff,,8486,5.46e5,active
CG12865 (retired record),DRSC06205,,,reporter ratio lowered past the hit cutoff,5883,3.20e5,inactive
Tango2 (Transport and Golgi organization 2),DRSC19394,,,,7945,4.96e5,inactive
Tango2 (Transport and Golgi organization 2),DRSC21526,,,,9460,4.14e5,inactive
mora (morgana),DRSC16594,,,,5852,3.19e5,inactive
CG31419,DRSC15771,,,,7898,3.68e5,inactive
Cpr92F (Cuticular protein 92F),DRSC15819,,,,7699,4.50e5,inactive
CG34447,DRSC00741,,,,7106,4.36e5,inactive
Pur-alpha (Purine-rich binding protein-alpha),DRSC17166,,,,8551,5.59e5,inactive
Tim17b1,DRSC12179,,,,6260,3.73e5,inactive
CG33120,DRSC02073,,,,9670,1.60e6,inactive
CG14294,DRSC14774,,,,7059,3.64e5,inactive
CG17294,DRSC02596,,,,11823,1.40e6,inactive
CG11164,DRSC19392,,,,4591,4.05e5,inactive
Gr47b (Gustatory receptor 47b),DRSC05275,,,,5911,3.17e5,inactive
Adgf-A2 (Adenosine deaminase-related growth factor A2),DRSC09507,,,,4371,3.06e5,inactive
Or83a (Odorant receptor 83a),DRSC12357,,,,7479,3.30e5,inactive
Sfxn1-3 (Sideroflexin 1/3),DRSC12183,,,,7063,3.33e5,inactive
tzn (tenzing norgay),DRSC11755,,,,7543,3.96e5,inactive
CG15043,DRSC19619,,,,6511,5.14e5,inactive
trn (tartan),DRSC11407,,,,6739,3.85e5,inactive
Nup133 (Nucleoporin 133kD),DRSC16150,,,,12792,3.43e5,inactive
Rbm13 (RNA-binding motif protein 13),DRSC17749,,,,5756,3.25e5,inactive
CG13654,DRSC14654,,,,6916,2.67e5,inactive
CR18275 (pseudo),DRSC18151,,reporter ratio lowered past the hit cutoff,,5718,7.18e5,inactive
SPoCk (Secretory Pathway Calcium atpase),DRSC11675,,,,7494,4.35e5,inactive
SPoCk (Secretory Pathway Calcium atpase),DRSC11706,,,reporter ratio raised past the hit cutoff,7615,5.57e5,inactive
SPoCk (Secretory Pathway Calcium atpase),DRSC11844,,,,7438,3.09e5,inactive
SPoCk (Secretory Pathway Calcium atpase),DRSC11845,,,,7374,3.62e5,inactive
Zasp52 (Z band alternatively spliced PDZ-motif protein 52),DRSC06269,,,,5203,2.13e5,inactive
Zasp52 (Z band alternatively spliced PDZ-motif protein 52),DRSC07121,,,,6840,5.44e5,inactive
Mob3 (MOB kinase activator 3),DRSC02791,,,,8607,7.16e5,inactive
EcR (Ecdysone receptor),DRSC04906,,,,6419,4.37e5,inactive
EcR (Ecdysone receptor),DRSC04910,,,,8179,1.64e6,inactive
CG4194,DRSC18520,,,,9289,4.67e5,inactive
sowi (solwind),DRSC12558,,,,6710,4.48e5,inactive
CG42331,DRSC14633,,,,4507,3.53e5,inactive
CG42331,DRSC16126,,,,6646,4.14e5,inactive
Nckx30C,DRSC02686,,,,7451,3.89e5,inactive
Nckx30C,DRSC02687,,,,7287,4.04e5,inactive
Nckx30C,DRSC02688,,,,7871,4.67e5,inactive
Nckx30C,DRSC02689,,,,7977,4.04e5,inactive
Mt2 (Methyltransferase 2),DRSC03374,,,,7126,4.64e5,inactive
CG14851,DRSC14975,,,,7387,3.50e5,inactive
CG14851,DRSC21500,,,,8574,4.83e5,inactive
CG17834,DRSC02637,,,,7251,6.70e5,inactive
Pkcdelta (Protein kinase C delta),DRSC19356,,,,6090,5.75e5,inactive
Pkcdelta (Protein kinase C delta),DRSC19399,,,,5368,4.69e5,inactive
Dlip3 (Dorsal interacting protein 3),DRSC07401,,,,5631,2.78e5,inactive
hep (hemipterous),DRSC19839,,,,6210,3.61e5,inactive
hep (hemipterous),DRSC20337,,,,5511,3.73e5,inactive
"betaNACtes4 (Nascent-associated complex beta-subunit-like, testis 4)",DRSC19801,,,,4603,3.59e5,inactive
fs(2)ltoPP43 (female sterile (2) ltoPP43),DRSC02067,,,,6750,5.29e5,inactive
Argl + CG9515,DRSC03243,,,,19678,6.63e5,inactive
Argl + CG9515,DRSC03245,,,,6866,3.73e5,inactive
